Patent US20070078085
Results from cells or extracts need not show a direct contact. For some of these results: A negative result means that nothing was seen under these conditions. For some of these results: For at least one entry, the source does not settle the construct or the ends of the probe.

Amino acid sequences for entries named in this document (tags omitted). A change or cut given only in a name is not applied to a line headed by its entry.
UniProt P16220: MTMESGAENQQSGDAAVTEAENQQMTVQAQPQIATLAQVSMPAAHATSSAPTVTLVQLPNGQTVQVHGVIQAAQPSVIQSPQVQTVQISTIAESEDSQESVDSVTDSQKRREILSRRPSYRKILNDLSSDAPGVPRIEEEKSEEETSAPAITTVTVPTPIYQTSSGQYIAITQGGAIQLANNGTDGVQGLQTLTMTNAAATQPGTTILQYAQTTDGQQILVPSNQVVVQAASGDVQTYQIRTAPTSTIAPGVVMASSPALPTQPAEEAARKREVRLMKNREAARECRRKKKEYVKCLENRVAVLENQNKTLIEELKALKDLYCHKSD
UniProt Q13950, whole entry: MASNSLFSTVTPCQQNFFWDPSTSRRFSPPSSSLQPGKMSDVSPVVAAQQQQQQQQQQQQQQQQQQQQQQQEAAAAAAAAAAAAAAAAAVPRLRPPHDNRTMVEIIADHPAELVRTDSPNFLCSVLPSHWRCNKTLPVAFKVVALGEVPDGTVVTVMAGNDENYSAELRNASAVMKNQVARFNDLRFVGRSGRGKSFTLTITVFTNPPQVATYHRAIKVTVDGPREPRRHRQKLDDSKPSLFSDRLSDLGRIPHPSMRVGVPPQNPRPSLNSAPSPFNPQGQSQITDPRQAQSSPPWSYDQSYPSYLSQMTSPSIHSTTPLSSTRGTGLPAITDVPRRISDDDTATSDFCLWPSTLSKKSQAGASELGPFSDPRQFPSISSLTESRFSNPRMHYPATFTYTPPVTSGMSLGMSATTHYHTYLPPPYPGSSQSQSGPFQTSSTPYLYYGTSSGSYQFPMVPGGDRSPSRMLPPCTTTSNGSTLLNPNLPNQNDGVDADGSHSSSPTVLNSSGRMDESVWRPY

Assays:
[1] = biological target: CREB (endogenous, MG63 nuclear extract) (Homo sapiens) (UniProt P16220); experiment: EMSA; details: protein in an extract; label: 32P 5' end
[2] = biological target: CREB (endogenous, C4-2B nuclear extract) (Homo sapiens) (UniProt P16220); experiment: EMSA; details: nuclear extract; complex enhanced by ARCaP CM or forskolin, blocked by H-89, competed by unlabeled CRE, supershifted by anti-CREB; poly(dI-dC), 50 mM NaCl …; protein in an extract; label: 32P 5' end
[3] = biological target: Runx2/AML3 (endogenous, C4-2B or MG63 nuclear extract) (Homo sapiens) (UniProt Q13950); experiment: EMSA; details: no supershift with anti-Runx2 antibody; specificity control; protein in an extract; label: 32P 5' end
[4] = biological target: CREB (endogenous, C4-2B nuclear extract) (Homo sapiens) (UniProt P16220); experiment: competition with a labelled probe; details: unlabeled Mut6 did not compete for the CRE-nuclear protein complex; protein in an extract; variant of hOC CRE wild type probe

Q: Which results are given for “ACCAACCGGCTGACCTCATCTCCTGCC (double strand) [hOC CRE wild type probe]”?
A: binding result [1]: no binding; binding result [2]: binds; binding result [3]: no binding

Q: Does “ACCAACCGGCTGAAATCATCTCCTGCC (double strand) [hOC CRE Mut6]” bind [4]?
A: no binding
